These are yes or no findings as the source states them, for the method shown. Some entries that bind do so weakly or less than the wild type.
Target: ENO1 (α-enolase) (human (rheumatoid arthritis patient)) (UniProt P06733)
Assay: peptide micro array

By UniProt entry, the sequences of proteins in these tests, tags left out. Residues count along the entry.
UniProt P06733, residues 2-434: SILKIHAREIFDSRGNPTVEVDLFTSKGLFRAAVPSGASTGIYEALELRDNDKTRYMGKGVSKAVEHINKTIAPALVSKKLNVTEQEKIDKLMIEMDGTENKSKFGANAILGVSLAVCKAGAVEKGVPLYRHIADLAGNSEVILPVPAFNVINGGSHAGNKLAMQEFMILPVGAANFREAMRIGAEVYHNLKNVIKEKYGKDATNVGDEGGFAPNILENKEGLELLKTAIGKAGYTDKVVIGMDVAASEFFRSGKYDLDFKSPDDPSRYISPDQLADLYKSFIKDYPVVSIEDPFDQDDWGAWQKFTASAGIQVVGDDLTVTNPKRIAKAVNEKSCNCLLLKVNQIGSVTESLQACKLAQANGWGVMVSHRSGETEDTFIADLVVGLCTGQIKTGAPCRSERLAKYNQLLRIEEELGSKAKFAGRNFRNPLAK

Row | Binder | binding
1 | CKEQHLFLPFSY [apoB100 #2] | binds
2 | AICKEQHLFLPF [apoB100 #1] | binds

The remaining lines, values ahead:

Row | binding | Binder
3 | binds | SYKNKYGMVAQV [apoB100 #3]
4 | binds | TKKMGLAFESTK [apoB100 #5]
5 | binds | KNKYGMVAQVTQ [apoB100 #4]

From patent publication US20210221847A1
